Source: patent publication US7955815B2, “Two-photon fluorescent probes for acidic vesicles in live cells and tissue and method of imaging acidic vesicles in live cells and tissue using the same” (Korea University Industrial & Academic Collaboration …, priority 2007, dated 2011)
Some results were stated once for a whole list of compounds, not compound by compound.

Experiment: Two-photon action cross section by fs fluorescence measurement, fluorescein as reference
Assay type: physicochemical
Conditions: 780 nm, universal buffer pH 3.2, 5.0×10^−6 M
Description: The two-photon cross section (δ) was determined by using femto second (fs) fluorescence measurement technique.
Specifically, each of the probes AH1, AH2, AL1 and LYSOTRACKER™ Red (DND-99) was dissolved in a universal buffer (pH=3.2) at a concentration of 5.0×10^−6 M and then the two-photon induced fluorescence intensity was measured at 740-940 nm by using fluorescein (8.0×10^−6 M, pH=11) as the reference, whose two-photon property has been well characterized.
The intensities of the two-photon induced fluorescence spectra of the reference and the sample probe were measured, and the two-photon cross section of the sample probe was calculated according to Equation 2: […]
wherein the subscripts s and r represent the sample probe and the reference, respectively, δ represents the two-photon cross section of the sample probe, and S represents the intensity of the signal collected by a detector, Φ represents the fluorescence quantum yield, φ represents the overall fluorescence collection efficiency of the experimental apparatus, c represents the number density of the molecules in solution, and δr represents the two-photon cross section of the reference.
The two-photon action cross section of the sample probe was calculated by multiplying the two-photon cross section by the quantum yield.

Compound | two-photon action cross section (Φδ)
CC(=O)c1ccc2cc(N(C)CC(=O)Nc3ccc(N)cc3)ccc2c1 [AH1] | > 86 GM
COc1cc(NC(=O)CN(C)c2ccc3cc(C(C)=O)ccc3c2)ccc1N [AH2] | > 86 GM
